Reference: patent publication US20200079851A1
Positions count from the first letter of the chain named. No constants are given. Whether binding was seen depends on the method and setting. Some entries that bind do so weakly or less than the wild type. Each block holds one binder with its values, some of them ahead of it.

Chains of the proteins cited; added tags and fusions are not shown. Residues count along the entry.
UniProt Q8N423, residues 22-458: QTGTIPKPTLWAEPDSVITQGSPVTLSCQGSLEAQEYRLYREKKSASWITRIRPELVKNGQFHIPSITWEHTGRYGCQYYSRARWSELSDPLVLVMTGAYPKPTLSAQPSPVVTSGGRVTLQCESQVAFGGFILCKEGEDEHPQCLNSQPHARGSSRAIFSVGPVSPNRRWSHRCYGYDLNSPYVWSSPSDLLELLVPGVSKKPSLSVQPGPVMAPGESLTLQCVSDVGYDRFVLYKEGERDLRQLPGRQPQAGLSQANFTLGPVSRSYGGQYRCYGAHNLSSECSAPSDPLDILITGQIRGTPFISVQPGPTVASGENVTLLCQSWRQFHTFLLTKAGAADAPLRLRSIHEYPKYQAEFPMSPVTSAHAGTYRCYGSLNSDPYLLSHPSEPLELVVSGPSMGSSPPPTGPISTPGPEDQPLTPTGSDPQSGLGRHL

Columns and labels:
[1] = target: D2-SR-M1(139-259); assay: ELISA, mAb titrated on D2-SR-M1(139-259)
[2] = target: D2-SR-M16(210-259); assay: ELISA, mAb titrated on D2-SR-M16(210-259)
[3] = target: D2-SR-M1(139-259); assay: ELISA, one bar for each antigen, antibody concentration not given
[4] = target: D2-SR-M16(210-259); assay: as above
[5] = target: LILRB2 (human) (UniProt Q8N423); assay: reactivity table, assay not named on the sheet
[6] = target: T1, D2-SR-M2(139-235); assay: ELISA, mAb titrated on D2-SR-M2(139-235)
T1 sequence: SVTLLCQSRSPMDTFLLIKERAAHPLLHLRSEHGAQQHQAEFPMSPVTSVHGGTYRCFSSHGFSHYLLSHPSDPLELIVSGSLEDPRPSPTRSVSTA

[7] = target: D2-SR-M15(139-219); assay: ELISA, mAb titrated on D2-SR-M15(139-219)
[8] = target: D2-SR-M15(139-219); assay: ELISA, one bar for each antigen, antibody concentration not given
[9] = target: T1, D2-SR-M2(139-235); assay: as above

binding [1]: binds
binding [6]: binds
binding [7]: binds
binding [3]: binds
binding [8]: binds
binding [9]: binds
B4: anti-LILRB4 rabbit monoclonal antibody #139 (antibody, V domains shown)
VH: EQSLEESGGRLVTPGTPLTLTCTVSGFSLNSYAMAWVRQAPGKGLEWIGIIGLSTMTYYASWVNGRFTISKTSTTVDLKMTSLTTEDTATYFCVRNDVYWAFNLWGQGTLVTVSS
VL: ELDLTQTPSSVSAGVGGTVSISCQSSESVVNNHALSWYQQKPGQPPKLLIYKASTLASGVPSRFSGSGSGAQFTLTISGVQCDDAATYYCQGGFYSGISDYPFGGGTEVEIK

binding [5]: binds
B5: anti-LILRB mAb C290 (antibody, V domains shown)
VH: EVQLLQSGPELVKPGASVKISCRTSGYTFTEYTMHWVKQSHGKSLEWIGGINTNNGGTSYNQKFKGKATLTVDKSSSTAYMELRSLTSEDSAVYYCARDKRSRGELDSTMDYWGQGTSVTVSS
VL: DIVMTQAAPSVPVTPGESVSISCRSSKSLLHSNGNTYLYWFLQRPGQSPQLLIYRMSNLASGVPDRFSGSGSGTAFTLRISRVEAEDVGVYYCMQHLEYPFTFGSGTMLEIK

binding [1]: binds
binding [2]: binds
binding [3]: binds
binding [4]: binds
B6: anti-LILRB4 rabbit monoclonal antibody #216-2 (antibody, V domains shown)
VH: EQSLKESGGRLVTPGTPLTLTCTVSGIDLSSYAMTWVRQVPGKGLEYIGFINIVGIAGYATWAKGRFTISKTSTTVDLKVTSPTTEDTATYFCARNWIRLDLWGQGTLVTVSS
VL: ELVMTQTPASVSAAVGGTVTISCQSSESLYKKNYLSWFQQKPGQPPKLLIYEASKLASGVPSRFSGSGSGTQFTLTISDVQCDDAASYYCLGDYTNGRDTTFGGGTEVEIK

The next lines start with the binder.

B1: anti-LILRB4 rabbit monoclonal antibody #8 (antibody, V domains shown)
VH: QSVKESGGGLVTPGGTLTLTCTASGFSLISYDMYWVRQAPGKGLEYIGIIYSDGYTFYATGAKGRITISRTSTTVDLKITSPTTEDTATYFCATNAFALWGQGTLVTISS
VL: ELDLTQTPSSVSAAVGGTVTISCQSSQNVYNNNWLVWLQQKPGQPPKRLIYTASSLASGVPSRFAGSGSATQFTLTISDLECGDAATYYCAGGYSGPIYTFGGGTEVEIK
binding [1]: binds
binding [2]: binds
binding [3]: binds
binding [4]: binds

B2: anti-LILRB4 mAb C84 (antibody, V domains shown)
VH: QIQLVQSGPELKKPGETVKISCKASGYTFTNYGMNWVKQAPGKGLKWMGWINTYTGEPTYADDFKGRFAFSLETSASTAYLQINNLKNEDMATYFCASIYYHTSLWYFDVWGAGTTVTVSS
VL: DVLMTQTPLSLPVSLGDQASISCRSSQNIVHSNGNTYLEWYLQKPGQSPKLLIYRVSNRFSGVPVRFSGSGSGTDFTLKISRVEAEDLGVYYCFQGSHVPLTFGAGTKLELK
binding [5]: binds

B3: anti-LILRB4 mAb C201 (antibody, V domains shown)
VH: DVQLQESGPGLVKPSQSLSLTCTVTGYSITSDYAWNWIRQFPGNKLEWMGYISYSGGTSYNPSLKSRISITRDTSKNQFFLQLNSVTTEDTATYYCARLHYGYDYWGLGTTLTVSS
VL: B2 VL with N28S, R55K, V65D, S97L, L101P, A105G, L111I
binding [5]: binds
